# Source: the supplement of paper PMC12067093, “Discovery and optimisation of a covalent ligand for TRIM25 and its application to targeted protein ubiquitination” (Chemical Science, 2025)
# Amino acid sequences for entries named in this document (tags omitted). A change or cut given only in a name is not applied to a line headed by its entry.
# UniProt P46063: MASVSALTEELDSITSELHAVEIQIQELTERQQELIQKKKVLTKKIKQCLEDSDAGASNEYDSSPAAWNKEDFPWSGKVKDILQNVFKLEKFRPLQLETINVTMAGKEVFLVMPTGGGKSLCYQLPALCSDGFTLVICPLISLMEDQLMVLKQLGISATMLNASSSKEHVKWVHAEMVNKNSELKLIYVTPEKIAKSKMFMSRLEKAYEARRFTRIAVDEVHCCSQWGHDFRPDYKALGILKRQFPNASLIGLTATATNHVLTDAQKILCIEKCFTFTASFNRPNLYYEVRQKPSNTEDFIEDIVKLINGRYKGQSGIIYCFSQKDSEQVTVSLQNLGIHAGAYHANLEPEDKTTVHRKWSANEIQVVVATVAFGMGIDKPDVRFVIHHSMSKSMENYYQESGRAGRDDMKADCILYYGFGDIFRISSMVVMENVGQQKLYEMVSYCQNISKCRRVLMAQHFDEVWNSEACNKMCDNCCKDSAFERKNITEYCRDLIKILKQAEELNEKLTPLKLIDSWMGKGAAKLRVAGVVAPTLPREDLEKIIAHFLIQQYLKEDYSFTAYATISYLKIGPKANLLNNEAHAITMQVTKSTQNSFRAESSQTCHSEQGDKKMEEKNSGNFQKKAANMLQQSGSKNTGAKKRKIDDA
# UniProt Q8IXI2: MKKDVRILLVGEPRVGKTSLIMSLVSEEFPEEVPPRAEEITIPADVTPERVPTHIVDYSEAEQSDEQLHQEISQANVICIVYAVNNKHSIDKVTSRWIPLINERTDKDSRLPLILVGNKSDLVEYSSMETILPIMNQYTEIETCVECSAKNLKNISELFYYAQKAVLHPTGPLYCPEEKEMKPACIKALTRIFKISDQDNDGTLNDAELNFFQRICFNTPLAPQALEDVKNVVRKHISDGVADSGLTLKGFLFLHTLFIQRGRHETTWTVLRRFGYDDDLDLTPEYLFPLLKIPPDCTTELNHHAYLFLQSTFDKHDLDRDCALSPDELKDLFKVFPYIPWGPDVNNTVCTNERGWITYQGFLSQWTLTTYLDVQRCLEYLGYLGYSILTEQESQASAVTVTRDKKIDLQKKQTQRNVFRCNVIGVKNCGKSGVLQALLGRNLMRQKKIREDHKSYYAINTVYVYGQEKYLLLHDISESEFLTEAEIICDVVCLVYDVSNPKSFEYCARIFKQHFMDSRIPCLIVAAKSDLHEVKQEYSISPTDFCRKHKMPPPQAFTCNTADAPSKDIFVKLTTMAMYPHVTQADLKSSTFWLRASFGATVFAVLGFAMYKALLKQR
# UniProt Q8WVD3: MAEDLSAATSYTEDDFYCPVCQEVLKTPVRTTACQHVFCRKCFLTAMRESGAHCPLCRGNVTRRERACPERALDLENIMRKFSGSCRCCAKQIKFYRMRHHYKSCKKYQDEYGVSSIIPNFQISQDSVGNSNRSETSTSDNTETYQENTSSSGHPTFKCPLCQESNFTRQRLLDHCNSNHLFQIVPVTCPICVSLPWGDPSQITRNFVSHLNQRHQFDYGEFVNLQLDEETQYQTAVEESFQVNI
# UniProt P40938, whole entry, looked up: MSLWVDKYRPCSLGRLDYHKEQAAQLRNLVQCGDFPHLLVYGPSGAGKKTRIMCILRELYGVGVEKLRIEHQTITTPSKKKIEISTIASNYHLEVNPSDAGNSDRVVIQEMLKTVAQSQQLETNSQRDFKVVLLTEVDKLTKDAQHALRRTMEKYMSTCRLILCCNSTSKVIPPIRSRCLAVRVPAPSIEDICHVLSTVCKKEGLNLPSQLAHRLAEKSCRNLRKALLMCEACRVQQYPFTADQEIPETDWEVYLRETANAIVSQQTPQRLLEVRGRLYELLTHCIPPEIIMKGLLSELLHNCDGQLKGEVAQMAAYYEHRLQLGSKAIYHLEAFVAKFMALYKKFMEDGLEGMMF
# UniProt P51606: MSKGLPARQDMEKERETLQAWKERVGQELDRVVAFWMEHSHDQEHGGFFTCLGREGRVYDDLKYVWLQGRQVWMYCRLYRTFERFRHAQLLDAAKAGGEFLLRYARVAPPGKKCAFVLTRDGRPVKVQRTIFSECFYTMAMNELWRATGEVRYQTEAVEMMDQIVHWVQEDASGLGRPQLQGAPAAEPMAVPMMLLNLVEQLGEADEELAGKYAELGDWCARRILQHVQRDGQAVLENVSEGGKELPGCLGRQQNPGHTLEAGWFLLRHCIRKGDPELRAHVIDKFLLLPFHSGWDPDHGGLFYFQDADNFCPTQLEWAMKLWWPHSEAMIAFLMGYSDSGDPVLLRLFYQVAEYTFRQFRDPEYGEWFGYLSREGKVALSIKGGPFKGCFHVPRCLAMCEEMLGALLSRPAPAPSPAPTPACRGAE
# UniProt Q9P260: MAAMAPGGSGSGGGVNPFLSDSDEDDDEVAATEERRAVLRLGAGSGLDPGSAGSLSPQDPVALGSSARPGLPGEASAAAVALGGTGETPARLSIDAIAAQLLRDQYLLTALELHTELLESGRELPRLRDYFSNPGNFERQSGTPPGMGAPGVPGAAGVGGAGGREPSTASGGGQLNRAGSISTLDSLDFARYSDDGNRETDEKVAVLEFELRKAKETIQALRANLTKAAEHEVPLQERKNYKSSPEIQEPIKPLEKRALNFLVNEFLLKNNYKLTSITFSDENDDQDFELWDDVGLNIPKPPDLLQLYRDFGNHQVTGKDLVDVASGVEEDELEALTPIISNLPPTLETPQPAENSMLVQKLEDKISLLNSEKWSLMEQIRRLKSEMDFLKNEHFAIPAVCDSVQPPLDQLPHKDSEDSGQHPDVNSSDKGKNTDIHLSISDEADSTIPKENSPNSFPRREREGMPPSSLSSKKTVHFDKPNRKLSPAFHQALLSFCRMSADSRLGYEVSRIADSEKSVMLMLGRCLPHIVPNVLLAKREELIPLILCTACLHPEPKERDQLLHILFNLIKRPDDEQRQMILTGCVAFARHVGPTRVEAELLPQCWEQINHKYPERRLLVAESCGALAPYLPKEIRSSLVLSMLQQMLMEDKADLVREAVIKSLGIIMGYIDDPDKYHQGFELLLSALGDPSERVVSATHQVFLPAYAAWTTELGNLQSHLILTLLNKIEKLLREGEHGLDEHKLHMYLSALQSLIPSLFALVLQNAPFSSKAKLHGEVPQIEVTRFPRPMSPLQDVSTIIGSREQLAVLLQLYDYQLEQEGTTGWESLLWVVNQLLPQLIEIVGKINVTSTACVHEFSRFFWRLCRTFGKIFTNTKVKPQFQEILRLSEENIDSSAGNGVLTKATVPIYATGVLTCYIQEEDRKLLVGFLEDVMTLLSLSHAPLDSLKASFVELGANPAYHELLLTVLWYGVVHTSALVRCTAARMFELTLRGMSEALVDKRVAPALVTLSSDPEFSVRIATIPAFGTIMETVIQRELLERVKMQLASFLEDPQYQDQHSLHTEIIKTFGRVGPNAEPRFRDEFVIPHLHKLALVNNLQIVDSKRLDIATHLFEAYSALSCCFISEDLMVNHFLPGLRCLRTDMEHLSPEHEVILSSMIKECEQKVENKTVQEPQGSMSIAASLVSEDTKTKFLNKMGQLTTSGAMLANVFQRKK
# UniProt Q9Y508: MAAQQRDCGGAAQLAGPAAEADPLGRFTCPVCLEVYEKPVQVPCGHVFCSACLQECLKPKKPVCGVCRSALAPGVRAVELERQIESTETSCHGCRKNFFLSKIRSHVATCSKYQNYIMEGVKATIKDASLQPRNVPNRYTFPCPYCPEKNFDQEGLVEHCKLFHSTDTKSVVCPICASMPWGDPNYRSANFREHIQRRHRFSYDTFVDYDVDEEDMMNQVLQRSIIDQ
# UniProt O14730: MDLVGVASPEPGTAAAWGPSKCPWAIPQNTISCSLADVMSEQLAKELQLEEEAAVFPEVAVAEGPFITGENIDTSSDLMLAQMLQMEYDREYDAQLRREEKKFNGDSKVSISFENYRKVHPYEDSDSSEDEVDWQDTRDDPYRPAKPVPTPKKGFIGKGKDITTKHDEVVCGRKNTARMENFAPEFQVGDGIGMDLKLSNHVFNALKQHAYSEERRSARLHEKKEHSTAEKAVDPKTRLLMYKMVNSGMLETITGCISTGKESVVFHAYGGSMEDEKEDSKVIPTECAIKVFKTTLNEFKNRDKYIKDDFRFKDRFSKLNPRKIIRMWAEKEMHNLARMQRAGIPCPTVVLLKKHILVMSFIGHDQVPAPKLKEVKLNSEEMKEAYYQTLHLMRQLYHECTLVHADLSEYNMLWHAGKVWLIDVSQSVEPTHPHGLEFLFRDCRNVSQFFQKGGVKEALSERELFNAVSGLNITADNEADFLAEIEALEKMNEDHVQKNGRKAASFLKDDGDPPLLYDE
# UniProt Q8IXI1, whole entry, looked up: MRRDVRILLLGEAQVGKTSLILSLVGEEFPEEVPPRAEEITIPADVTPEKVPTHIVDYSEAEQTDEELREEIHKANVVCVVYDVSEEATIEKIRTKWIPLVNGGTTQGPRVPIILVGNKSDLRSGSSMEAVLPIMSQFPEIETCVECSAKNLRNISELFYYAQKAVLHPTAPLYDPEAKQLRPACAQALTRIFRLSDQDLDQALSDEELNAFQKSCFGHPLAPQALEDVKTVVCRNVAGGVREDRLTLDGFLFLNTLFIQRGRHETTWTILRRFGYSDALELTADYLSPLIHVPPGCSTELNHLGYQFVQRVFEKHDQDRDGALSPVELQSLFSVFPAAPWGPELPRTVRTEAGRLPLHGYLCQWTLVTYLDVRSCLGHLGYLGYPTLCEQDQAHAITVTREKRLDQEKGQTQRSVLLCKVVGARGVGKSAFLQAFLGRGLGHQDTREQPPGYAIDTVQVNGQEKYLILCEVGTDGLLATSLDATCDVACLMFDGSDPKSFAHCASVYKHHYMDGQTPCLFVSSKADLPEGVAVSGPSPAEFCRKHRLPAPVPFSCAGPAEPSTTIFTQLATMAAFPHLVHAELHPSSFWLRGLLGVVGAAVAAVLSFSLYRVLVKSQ
# UniProt Q6R327, whole entry, looked up: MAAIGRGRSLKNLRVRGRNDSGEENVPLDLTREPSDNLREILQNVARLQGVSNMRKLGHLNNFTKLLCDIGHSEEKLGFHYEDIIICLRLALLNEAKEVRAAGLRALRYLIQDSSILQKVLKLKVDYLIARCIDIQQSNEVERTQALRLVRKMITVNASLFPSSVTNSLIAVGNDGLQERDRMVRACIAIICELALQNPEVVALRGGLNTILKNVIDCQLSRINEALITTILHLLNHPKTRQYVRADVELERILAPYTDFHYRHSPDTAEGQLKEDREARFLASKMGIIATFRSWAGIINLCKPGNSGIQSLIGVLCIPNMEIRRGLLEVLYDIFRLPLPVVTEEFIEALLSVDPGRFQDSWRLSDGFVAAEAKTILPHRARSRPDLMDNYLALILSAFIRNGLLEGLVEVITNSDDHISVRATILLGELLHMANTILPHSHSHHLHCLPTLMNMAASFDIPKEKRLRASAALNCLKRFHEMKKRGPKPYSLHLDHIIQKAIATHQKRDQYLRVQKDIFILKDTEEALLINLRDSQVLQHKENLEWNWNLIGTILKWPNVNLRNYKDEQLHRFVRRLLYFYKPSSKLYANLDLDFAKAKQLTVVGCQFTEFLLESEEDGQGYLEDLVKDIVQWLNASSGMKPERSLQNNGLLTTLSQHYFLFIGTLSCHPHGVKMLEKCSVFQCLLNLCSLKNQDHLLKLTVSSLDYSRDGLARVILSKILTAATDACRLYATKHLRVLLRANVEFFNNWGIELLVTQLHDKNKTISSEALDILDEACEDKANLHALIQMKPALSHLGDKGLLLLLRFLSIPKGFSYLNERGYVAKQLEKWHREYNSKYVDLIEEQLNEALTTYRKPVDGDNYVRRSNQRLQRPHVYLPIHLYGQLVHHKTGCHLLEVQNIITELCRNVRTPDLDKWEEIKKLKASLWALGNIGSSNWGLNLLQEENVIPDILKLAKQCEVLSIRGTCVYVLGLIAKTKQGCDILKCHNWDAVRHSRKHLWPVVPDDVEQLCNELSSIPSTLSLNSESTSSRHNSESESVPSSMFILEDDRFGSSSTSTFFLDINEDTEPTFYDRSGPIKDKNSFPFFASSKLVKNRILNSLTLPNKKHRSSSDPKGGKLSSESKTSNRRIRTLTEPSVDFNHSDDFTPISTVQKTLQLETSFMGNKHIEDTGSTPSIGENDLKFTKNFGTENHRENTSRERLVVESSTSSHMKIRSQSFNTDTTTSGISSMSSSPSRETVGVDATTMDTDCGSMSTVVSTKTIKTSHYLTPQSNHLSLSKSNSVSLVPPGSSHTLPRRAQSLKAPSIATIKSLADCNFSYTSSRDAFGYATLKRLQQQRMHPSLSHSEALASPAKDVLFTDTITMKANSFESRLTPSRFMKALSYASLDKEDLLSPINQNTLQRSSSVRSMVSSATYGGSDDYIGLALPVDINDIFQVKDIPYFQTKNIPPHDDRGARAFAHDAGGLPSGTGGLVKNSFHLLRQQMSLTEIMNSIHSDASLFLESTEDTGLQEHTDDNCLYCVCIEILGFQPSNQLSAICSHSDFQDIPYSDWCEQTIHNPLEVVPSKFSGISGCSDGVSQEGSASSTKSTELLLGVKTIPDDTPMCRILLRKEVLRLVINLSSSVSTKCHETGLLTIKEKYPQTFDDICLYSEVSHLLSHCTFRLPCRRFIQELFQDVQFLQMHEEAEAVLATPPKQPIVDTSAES
# Some of the results follow.
# Compound: Cc1cc(ccc1-c1ccccc1)C(=O)N1CCCN(CC1)C(=O)CCl [compound 10]
# Test: probe-labelled cysteine peptide fold change vs DMSO (competition) (log2 fold change); higher = less target engagement (more negative = stronger competition)
# Conditions: THP-1, incubation time: 4 h
# 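Note: competitive profiling in live THP-1 cells: cysteine peptides tagged with an iodoacetamide desthiobiotin (IA-DTB) probe, intensity after compound treatment relative to DMSO-treated cells.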
Target,probe-labelled cysteine peptide fold change (10 µM),probe-labelled cysteine peptide fold change (50 µM)
RECQL_P46063_223+224_IAVDEVHCCSQWGHDFRPDYK (UniProt P46063),-0.137,-0.426
RHOT1_Q8IXI2_216_ICFNTPLAPQALEDVK (UniProt Q8IXI2),0.287,0.649
RNF126_Q9BV68_13+16_YFCHCCSVEIVPR (UniProt Q9BV68),-0.268,-1.16
RHOT1_Q8IXI2_522_IPCLIVAAK (UniProt Q8IXI2),0.16,0.193
RNF138_Q8WVD3_54_ESGAHCPLCR (UniProt Q8WVD3),-0.133,-0.0788
RFC3_P40938_11_YRPCSLGR (UniProt P40938),-0.143,-0.158
RENBP_P51606_423_PAPAPSPAPTPACR (UniProt P51606),-0.298,-0.249
RIC8A_Q9NPQ8_120_CLCNLVLSSPVAQMLAAEAR (UniProt Q9NPQ8),0.0787,-0.0343
RELCH_Q9P260_401_NEHFAIPAVCDSVQPPLDQLPHK (UniProt Q9P260),-0.293,-0.0895
RNF169_Q8NCN4_132_DDGQADSEVLGECAR (UniProt Q8NCN4),-0.417,0.423
RECQL4_O94761_749_TTAEAYHAGMCSR (UniProt O94761),-0.19,-0.86
RING1_Q06587_48+51_SLHSELMCPICLDMLK (UniProt Q06587),-0.0753,-0.585
RNF114_Q9Y508_8_DCGGAAQLAGPAAEADPLGR (UniProt Q9Y508),-0.000646,0.024
RNF114_Q9Y508_64+67_KPVCGVCR (UniProt Q9Y508),-0.15,-0.53
RENBP_P51606_400_CLAMCEEMLGALLSR (UniProt P51606),0.331,0.272
RIPOR1_Q6ZS17_945_VLEAVCEFSR (UniProt Q6ZS17),0.247,0.132
RFC4_P35249_281_IDGVFAACQSGSFDKLEAVVK (UniProt P35249),-0.113,-0.321
RGS12_O14924_930_EHGDHADDALHANGGLCR (UniProt O14924),0.245,0.438
RIOK3_O14730_400_QLYHECTLVHADLSEYNMLWHAGK (UniProt O14730),0.101,-0.261
RHOT2_Q8IXI1_389_SCLGHLGYLGYPTLCEQDQAHAITVTR (UniProt Q8IXI1),0.0779,0.238
RICTOR_Q6R327_959_QCEVLSIR (UniProt Q6R327),0.0762,0.00853
